Protein sequences can lack the tags named with them.
Key:
EstR [1] = molecular target: T1, EstR (UniProt A9CLK2); experiment: DNase I footprinting; settings: footprinting: same with 0.1 mM DTT, 5 ug/ml calf thymus DNA, 500 ng poly(dI-dC), room temperature, recombinant protein, residues 1-155, label: 5'-32P on BT1574 strand, probe letters rebuilt from the primers and the genome
T1 sequence (looked up): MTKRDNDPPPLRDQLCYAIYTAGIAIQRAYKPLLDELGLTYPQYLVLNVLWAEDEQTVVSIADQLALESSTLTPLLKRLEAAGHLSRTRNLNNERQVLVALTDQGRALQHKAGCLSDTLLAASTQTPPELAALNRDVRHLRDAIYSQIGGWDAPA

EstR [2] = molecular target: T1, EstR; experiment: EMSA; settings: complex seen at 25 nM EstR, maximal at 100 nM, 1 mM DTT, EMSA: 20 mM Tris-HCl pH 7.0, 50 mM KCl, 50 ug/ml BSA, 1 mM EDTA, 5% glycerol, 25 C 15 min, 3 fmol probe in 25 ul, recombinant protein, residues 1-155, label: 5'-32P on BT1574 strand, probe letters rebuilt from the primers and the genome
EstR [3] = molecular target: T1, EstR; experiment: competition with a labelled probe; settings: cold 314-bp promoter fragment competes with labeled fragment; EMSA: 20 mM Tris-HCl pH 7.0, 50 mM KCl, 50 ug/ml BSA, 1 mM EDTA, 5% glycerol, 1 mM DTT, 25 C 15 min, 3 fmol probe in 25 ul; recombinant protein; residues 1-155; label: 5'-32P on BT1574 strand; probe letters rebuilt from the primers and the genome

Measured: binding result

CTGGATAGCGATGCCTGCGGTATAAATAGCATAGCAGAGCTGGTCGCGCAGGGGCGGGGGATCATTATCGCGTTTGGTCATTCTGAACTCCTGTAGACACCAATATAACCTAAATTATCACGAAAACCAATATCGCGATAAGAATCATATTGACGCGTGTCCGAAGATATGAAAACCTATAGTTATCGCGATAACAGTTATCGCATTAAGAGAGAGGAGAGCATCATGTCACGCAAGTCCATCACTACCATTTCCGCAATCGCAACTGCAGCCTCGCTGTCGGTTGCCCTGCCGGCAGCGAATGCAGCCGACAC (double strand) [estR-estC promoter fragment, 314 bp]
binds: EstR [1]; site OI, +16 to -18 of estC promoter, protection at 50 nM EstR | EstR [1]; site OII, -46 to -82 of estC promoter, protection at 75 nM EstR | EstR [2] | EstR [3]

From paper PMC5201249, “Agrobacterium tumefaciens estC, Encoding an Enzyme Containing Esterase Activity, Is Regulated by EstR, a Regulator in the MarR Family” (PLoS ONE, 2016)
